Experimental data: PubChem BioAssay AID504764 (Drosophila RNAi Screening Center, 2011)
The screen tested about 22,000 reagents; this is an unselected part of those that have a named target and a result. In the full data, 403 (1.9%) got an active call. 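Unnormalised raw counts per well; ratio z-scores behind the hit calls and whether each hit raises or lowers signal are not deposited.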 Reagents against one gene are numbered here. Reagent sequences are not shown. Not stated in the record: the amount of reagent.

Aim: 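Genes whose knock-down alters Notch-dependent transcription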 (primary screen)
Cell system: Drosophila Kc167 cells
Reagents: long dsRNA against Drosophila genes
Time to read-out: about 5 days (4 days dsRNA, then 24 h after transfection)
Challenge: transfection of constitutively active membrane-tethered Notch lacking the extracellular domain, read 24 h later
Measurement: 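Light from a Notch-responsive E(spl)m3 luciferase reporter under active Notch, with control-promoter and no-Notch reporter wells to normalise; raw counts from paired wells a and b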
Reading the numbers: induced reporter light, run 1, well a and induced reporter light, run 1, well b: higher = more light from the Notch target reporter with active Notch; control promoter light, run 1, well a and control promoter light, run 1, well b: higher = more light from the viral control promoter (cell number, transfection, viability); uninduced reporter light, run 1, well a: higher = more light from the Notch target reporter without active Notch
Active means: 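Wells with low control signal or poorly matching duplicates excluded; duplicates averaged; per source plate, z beyond ±2 for induced/control log2 ratio or beyond ±1.8 for induced/uninduced marks a hit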
Meaning of the calls: active = modifier hit (raised or lowered Notch signal); inactive = not a hit

Target gene | dsRNA no. | induced reporter light, run 1, well a | induced reporter light, run 1, well b | control promoter light, run 1, well a | control promoter light, run 1, well b | uninduced reporter light, run 1, well a | outcome
CG11560 | 1 | 1.04e5 | 81480 | 1.03e5 | 44310 | 11290 | active
Cyt-c-p | 1 | 1.14e5 | 1.18e5 | 1.27e5 | 1.23e5 | 10670 | inactive
Cyp301a1 | 1 | 1.28e5 | 1.02e5 | 1.35e5 | 1.28e5 | 8810 | inactive
esg | 1 | 1.38e5 | 1.38e5 | 1.68e5 | 1.71e5 | 14425 | inactive
CG4607 | 1 | 1.27e5 | 1.45e5 | 2.68e5 | 2.60e5 | 10430 | inactive
Gasp | 1 | 1.12e5 | 1.17e5 | 67030 | 73120 | 8760 | inactive
Mst98Cb | 1 | 1.85e5 | 1.73e5 | 2.51e5 | 2.28e5 | 14705 | inactive
ey | 1 | 96740 | 92830 | 1.53e5 | 1.63e5 | 7235 | inactive
Hsc70-1 | 1 | 1.02e5 | 98565 | 1.48e5 | 1.21e5 | 11160 | inactive
Sirup | 1 | 1.54e5 | 1.96e5 | 90350 | 1.05e5 | 20755 | inactive
okr | 1 | 1.57e5 | 1.65e5 | 1.80e5 | 2.06e5 | 16940 | inactive
CG9973 (retired record) | 1 | 1.45e5 | 1.49e5 | 2.59e5 | 2.64e5 | 11830 | inactive
E(bx) | 1 | 1.11e5 | 1.48e5 | 2.34e5 | 1.57e5 | 7710 | inactive
E(bx) | 2 | 76775 | 64945 | 1.29e5 | 1.70e5 | 3890 | inactive
E(bx) | 3 | 59810 | 48500 | 89445 | 1.07e5 | 4165 | inactive
mei-S332 | 1 | 1.10e5 | 1.30e5 | 74270 | 85705 | 7405 | inactive
CIA30 | 1 | 1.94e5 | 1.91e5 | 2.69e5 | 2.90e5 | 13500 | inactive
ValRS-m | 1 | 2.23e5 | 1.87e5 | 2.89e5 | 2.45e5 | 12750 | inactive
CG9269 | 1 | 2.33e5 | 2.49e5 | 2.45e5 | 2.33e5 | 17415 | inactive
CG15554 | 1 | 1.28e5 | 94695 | 1.35e5 | 1.32e5 | 7725 | inactive
CG31050 | 1 | 1.70e5 | 1.59e5 | 1.73e5 | 1.64e5 | 12315 | inactive
inaF-A | 1 | 1.26e5 | 1.30e5 | 2.99e5 | 2.60e5 | 10265 | inactive
Eogt | 1 | 1.43e5 | 1.33e5 | 1.27e5 | 1.39e5 | 15150 | inactive
CG31054 (retired record) | 1 | – | – | – | – | – | inactive
Art9 | 1 | 2.62e5 | 2.31e5 | 2.07e5 | 2.09e5 | 20380 | inactive
Ugt36D1 | 1 | 2.11e5 | 2.01e5 | 1.68e5 | 2.24e5 | 16042 | inactive
Rpp30 | 1 | 2.13e5 | 2.24e5 | 2.22e5 | 2.20e5 | 15450 | inactive
Tm2 | 1 | 2.29e5 | 2.03e5 | 2.05e5 | 1.83e5 | 15640 | inactive
Or33c | 1 | 1.78e5 | 1.85e5 | 1.95e5 | 1.93e5 | 17080 | inactive
sm | 1 | 1.13e5 | 1.27e5 | 1.24e5 | 1.50e5 | 9980 | inactive
sm | 2 | 76245 | 1.04e5 | 2.02e5 | 1.82e5 | 7900 | inactive
CG14327 | 1 | 1.95e5 | 2.00e5 | 1.98e5 | 2.35e5 | 19285 | inactive
CG32628 (retired record) | 1 | 40435 | 44970 | 62110 | 38390 | 2975 | inactive
MFS12 | 1 | 1.93e5 | 1.59e5 | 1.64e5 | 1.66e5 | 15080 | inactive
Hen1 | 1 | 1.25e5 | 1.10e5 | 1.08e5 | 1.00e5 | 8675 | inactive
Hen1 | 2 | 1.09e5 | 1.19e5 | 1.27e5 | 1.47e5 | 8740 | inactive
Gtpx | 1 | 1.32e5 | 1.29e5 | 1.01e5 | 45630 | 14085 | inactive
jb | 1 | 68465 | 1.09e5 | 82010 | 79420 | 9855 | inactive
Naxd | 1 | 1.20e5 | 1.36e5 | 71845 | 80435 | 8385 | inactive
Irk1 | 1 | 1.12e5 | 1.12e5 | 1.49e5 | 1.40e5 | 10832 | inactive
CG17270 | 1 | 1.68e5 | 1.88e5 | 1.96e5 | 2.24e5 | 14955 | inactive
Sik3 | 1 | 31020 | 36515 | 45930 | 37485 | 3240 | inactive
Sik3 | 2 | 77550 | 78305 | 1.48e5 | 1.36e5 | 6045 | inactive
wgn | 1 | 60025 | 71650 | 67675 | 86890 | 10880 | inactive
HLH54F | 1 | 1.46e5 | 92770 | 1.06e5 | 1.00e5 | 8125 | inactive
Dscam1 | 1 | 31240 | 31850 | 42885 | 48150 | 2185 | inactive
Dscam1 | 2 | 36255 | 32855 | 46380 | 53575 | 2205 | inactive
Dscam1 | 3 | 1.53e5 | 1.57e5 | 2.45e5 | 1.94e5 | 15075 | inactive
Cyp313a5 | 1 | 79455 | 72730 | 80935 | 49530 | 4392 | inactive
Ctns | 1 | 1.41e5 | 1.64e5 | 2.13e5 | 2.14e5 | 11550 | inactive

No new results follow: entries from further up.
Target gene | dsRNA no. | induced reporter light, run 1, well a | induced reporter light, run 1, well b | control promoter light, run 1, well a | control promoter light, run 1, well b | uninduced reporter light, run 1, well a | outcome
MFS12 | 1 | 1.93e5 | 1.59e5 | 1.64e5 | 1.66e5 | 15080 | inactive
Hen1 | 1 | 1.25e5 | 1.10e5 | 1.08e5 | 1.00e5 | 8675 | inactive
Hen1 | 2 | 1.09e5 | 1.19e5 | 1.27e5 | 1.47e5 | 8740 | inactive
Gtpx | 1 | 1.32e5 | 1.29e5 | 1.01e5 | 45630 | 14085 | inactive
jb | 1 | 68465 | 1.09e5 | 82010 | 79420 | 9855 | inactive
Naxd | 1 | 1.20e5 | 1.36e5 | 71845 | 80435 | 8385 | inactive
Irk1 | 1 | 1.12e5 | 1.12e5 | 1.49e5 | 1.40e5 | 10832 | inactive
CG17270 | 1 | 1.68e5 | 1.88e5 | 1.96e5 | 2.24e5 | 14955 | inactive
